Assay results taken from the supplement of paper PMC11732987, “Enantioselective OTUD7B fragment discovery through chemoproteomics screening and high-throughput optimisation” (Communications Chemistry, 2025).
The list shows a part of the results. The data scatter; read single values as rough.

Sequences of proteins named here, by UniProt entry; tags and fusion partners are left off. A change or cut given only in a name is not applied to a line headed by its entry. Residues count along the entry.
UniProt P04150, 367-386: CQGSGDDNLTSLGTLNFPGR
UniProt Q9H4B0: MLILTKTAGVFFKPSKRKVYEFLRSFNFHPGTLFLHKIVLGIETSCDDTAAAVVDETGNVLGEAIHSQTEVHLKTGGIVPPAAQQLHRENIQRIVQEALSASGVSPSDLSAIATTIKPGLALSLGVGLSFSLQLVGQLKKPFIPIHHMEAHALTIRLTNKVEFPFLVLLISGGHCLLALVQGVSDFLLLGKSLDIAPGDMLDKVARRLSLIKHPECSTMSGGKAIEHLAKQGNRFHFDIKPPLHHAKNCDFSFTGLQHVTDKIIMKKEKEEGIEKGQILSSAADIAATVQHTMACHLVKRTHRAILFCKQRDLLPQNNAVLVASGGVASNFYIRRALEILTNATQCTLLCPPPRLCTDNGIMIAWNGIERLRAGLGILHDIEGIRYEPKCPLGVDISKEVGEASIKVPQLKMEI
UniProt Q15818: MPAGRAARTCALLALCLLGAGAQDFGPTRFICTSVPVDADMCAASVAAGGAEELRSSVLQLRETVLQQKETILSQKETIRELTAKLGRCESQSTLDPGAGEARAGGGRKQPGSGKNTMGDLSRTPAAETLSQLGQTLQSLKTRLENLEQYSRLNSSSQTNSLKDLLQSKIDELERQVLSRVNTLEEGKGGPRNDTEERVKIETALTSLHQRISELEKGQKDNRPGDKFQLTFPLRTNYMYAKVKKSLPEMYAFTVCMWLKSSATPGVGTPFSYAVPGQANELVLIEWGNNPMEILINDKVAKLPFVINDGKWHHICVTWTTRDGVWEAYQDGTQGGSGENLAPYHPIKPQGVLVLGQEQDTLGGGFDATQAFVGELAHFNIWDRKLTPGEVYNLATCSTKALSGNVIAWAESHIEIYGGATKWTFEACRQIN
UniProt Q9H649: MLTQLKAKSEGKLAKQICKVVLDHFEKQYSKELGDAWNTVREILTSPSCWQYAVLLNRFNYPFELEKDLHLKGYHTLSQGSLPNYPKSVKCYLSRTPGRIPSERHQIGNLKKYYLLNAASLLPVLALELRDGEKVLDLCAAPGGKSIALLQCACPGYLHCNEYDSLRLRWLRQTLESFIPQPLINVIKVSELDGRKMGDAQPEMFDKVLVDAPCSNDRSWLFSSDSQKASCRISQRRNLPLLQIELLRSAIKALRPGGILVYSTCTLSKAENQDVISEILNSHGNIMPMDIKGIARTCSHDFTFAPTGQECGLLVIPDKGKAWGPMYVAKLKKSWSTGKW
UniProt Q9BVL2, 241-260: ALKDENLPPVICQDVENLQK
UniProt P49116: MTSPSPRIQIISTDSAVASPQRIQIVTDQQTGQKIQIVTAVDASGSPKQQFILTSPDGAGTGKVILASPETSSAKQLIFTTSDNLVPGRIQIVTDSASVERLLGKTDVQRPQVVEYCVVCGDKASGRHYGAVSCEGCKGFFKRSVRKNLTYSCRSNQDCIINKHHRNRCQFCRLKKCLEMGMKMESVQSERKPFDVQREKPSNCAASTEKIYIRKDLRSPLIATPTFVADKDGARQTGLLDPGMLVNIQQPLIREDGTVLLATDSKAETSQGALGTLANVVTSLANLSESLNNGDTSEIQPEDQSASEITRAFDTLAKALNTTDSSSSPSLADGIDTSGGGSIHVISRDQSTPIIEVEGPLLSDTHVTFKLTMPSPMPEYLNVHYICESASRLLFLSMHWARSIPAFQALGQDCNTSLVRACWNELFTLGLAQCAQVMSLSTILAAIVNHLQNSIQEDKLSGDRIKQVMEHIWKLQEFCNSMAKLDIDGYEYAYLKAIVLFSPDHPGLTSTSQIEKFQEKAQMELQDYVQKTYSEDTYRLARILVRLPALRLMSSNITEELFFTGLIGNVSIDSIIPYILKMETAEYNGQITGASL
UniProt Q5W0B1: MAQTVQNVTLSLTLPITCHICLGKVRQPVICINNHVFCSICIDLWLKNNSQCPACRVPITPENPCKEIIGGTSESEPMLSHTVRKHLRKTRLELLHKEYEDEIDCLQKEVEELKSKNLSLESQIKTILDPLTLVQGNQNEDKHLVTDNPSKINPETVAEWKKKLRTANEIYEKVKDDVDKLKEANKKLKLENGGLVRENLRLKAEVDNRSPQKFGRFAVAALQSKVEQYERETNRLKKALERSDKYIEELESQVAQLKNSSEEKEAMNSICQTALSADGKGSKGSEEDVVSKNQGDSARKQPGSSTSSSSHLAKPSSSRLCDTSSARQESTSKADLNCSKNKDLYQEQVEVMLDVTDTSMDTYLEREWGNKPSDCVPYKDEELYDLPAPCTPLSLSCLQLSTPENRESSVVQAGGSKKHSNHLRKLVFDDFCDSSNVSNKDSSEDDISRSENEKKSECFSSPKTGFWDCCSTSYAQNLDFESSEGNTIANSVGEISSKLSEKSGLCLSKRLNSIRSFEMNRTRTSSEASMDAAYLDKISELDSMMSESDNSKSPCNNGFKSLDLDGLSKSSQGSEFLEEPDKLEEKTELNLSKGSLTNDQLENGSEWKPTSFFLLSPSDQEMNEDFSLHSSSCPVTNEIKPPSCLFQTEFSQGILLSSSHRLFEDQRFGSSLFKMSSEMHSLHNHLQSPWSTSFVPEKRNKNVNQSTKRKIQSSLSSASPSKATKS
UniProt O96028: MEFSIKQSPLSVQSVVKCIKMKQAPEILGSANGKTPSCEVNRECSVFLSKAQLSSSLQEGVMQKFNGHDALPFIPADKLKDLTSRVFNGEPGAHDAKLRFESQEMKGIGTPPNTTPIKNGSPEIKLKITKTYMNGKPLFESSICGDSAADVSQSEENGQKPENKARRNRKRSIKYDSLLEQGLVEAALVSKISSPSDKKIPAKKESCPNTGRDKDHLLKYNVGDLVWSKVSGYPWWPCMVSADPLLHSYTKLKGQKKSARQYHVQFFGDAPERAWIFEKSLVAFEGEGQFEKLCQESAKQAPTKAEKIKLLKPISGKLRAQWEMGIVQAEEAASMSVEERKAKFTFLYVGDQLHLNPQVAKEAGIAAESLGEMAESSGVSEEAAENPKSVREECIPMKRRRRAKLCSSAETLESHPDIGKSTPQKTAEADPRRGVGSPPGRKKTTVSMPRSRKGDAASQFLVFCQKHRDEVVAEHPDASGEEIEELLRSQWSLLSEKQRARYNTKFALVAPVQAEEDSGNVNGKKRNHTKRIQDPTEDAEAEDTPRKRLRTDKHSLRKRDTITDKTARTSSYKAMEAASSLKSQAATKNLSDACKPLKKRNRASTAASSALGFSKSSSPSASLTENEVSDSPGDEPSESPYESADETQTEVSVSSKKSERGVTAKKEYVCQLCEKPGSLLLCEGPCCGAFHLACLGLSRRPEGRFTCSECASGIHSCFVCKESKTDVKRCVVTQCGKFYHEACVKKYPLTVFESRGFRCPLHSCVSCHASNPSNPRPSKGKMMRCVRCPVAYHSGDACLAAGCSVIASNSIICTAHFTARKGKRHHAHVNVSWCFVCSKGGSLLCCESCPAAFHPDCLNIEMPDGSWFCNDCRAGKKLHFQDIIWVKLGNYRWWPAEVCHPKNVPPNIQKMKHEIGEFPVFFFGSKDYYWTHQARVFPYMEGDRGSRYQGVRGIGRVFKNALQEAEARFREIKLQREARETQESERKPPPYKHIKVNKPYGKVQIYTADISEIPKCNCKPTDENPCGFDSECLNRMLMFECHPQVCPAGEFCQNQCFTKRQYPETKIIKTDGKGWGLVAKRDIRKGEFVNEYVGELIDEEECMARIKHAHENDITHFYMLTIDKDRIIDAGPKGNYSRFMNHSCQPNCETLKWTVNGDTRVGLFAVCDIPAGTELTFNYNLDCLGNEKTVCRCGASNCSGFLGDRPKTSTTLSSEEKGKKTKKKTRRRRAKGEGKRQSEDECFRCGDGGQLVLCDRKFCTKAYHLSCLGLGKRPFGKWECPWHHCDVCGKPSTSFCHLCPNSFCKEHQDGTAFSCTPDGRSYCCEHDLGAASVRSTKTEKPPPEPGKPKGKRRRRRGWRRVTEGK
UniProt Q96CB9: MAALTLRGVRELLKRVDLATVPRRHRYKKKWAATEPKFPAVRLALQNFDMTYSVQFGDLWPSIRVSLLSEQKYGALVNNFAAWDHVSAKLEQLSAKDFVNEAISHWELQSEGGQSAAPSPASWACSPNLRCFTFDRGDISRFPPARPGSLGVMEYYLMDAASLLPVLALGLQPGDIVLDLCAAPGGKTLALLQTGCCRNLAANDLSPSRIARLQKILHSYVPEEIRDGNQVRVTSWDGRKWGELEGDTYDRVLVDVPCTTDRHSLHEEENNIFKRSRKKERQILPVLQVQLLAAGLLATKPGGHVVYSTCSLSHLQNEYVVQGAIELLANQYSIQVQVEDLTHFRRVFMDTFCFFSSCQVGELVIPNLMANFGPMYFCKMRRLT
UniProt Q9BXB5: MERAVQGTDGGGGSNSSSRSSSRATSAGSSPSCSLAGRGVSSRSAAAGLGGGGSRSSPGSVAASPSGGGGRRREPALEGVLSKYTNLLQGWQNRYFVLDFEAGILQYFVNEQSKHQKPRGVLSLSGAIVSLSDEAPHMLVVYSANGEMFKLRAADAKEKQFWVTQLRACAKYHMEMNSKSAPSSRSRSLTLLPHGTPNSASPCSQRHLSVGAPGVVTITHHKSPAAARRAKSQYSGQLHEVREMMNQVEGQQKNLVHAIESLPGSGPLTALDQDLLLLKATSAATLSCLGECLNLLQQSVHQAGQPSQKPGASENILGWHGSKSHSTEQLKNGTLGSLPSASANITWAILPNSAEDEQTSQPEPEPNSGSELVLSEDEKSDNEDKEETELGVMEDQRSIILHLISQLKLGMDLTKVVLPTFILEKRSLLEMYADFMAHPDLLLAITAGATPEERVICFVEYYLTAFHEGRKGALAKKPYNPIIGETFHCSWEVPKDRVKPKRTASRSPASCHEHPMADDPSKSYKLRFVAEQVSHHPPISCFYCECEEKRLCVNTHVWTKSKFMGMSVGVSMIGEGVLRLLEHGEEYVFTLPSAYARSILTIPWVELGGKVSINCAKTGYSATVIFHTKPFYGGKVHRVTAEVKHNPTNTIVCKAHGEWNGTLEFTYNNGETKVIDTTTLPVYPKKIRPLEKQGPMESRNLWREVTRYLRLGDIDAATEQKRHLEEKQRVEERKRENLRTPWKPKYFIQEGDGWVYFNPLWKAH
UniProt O60313: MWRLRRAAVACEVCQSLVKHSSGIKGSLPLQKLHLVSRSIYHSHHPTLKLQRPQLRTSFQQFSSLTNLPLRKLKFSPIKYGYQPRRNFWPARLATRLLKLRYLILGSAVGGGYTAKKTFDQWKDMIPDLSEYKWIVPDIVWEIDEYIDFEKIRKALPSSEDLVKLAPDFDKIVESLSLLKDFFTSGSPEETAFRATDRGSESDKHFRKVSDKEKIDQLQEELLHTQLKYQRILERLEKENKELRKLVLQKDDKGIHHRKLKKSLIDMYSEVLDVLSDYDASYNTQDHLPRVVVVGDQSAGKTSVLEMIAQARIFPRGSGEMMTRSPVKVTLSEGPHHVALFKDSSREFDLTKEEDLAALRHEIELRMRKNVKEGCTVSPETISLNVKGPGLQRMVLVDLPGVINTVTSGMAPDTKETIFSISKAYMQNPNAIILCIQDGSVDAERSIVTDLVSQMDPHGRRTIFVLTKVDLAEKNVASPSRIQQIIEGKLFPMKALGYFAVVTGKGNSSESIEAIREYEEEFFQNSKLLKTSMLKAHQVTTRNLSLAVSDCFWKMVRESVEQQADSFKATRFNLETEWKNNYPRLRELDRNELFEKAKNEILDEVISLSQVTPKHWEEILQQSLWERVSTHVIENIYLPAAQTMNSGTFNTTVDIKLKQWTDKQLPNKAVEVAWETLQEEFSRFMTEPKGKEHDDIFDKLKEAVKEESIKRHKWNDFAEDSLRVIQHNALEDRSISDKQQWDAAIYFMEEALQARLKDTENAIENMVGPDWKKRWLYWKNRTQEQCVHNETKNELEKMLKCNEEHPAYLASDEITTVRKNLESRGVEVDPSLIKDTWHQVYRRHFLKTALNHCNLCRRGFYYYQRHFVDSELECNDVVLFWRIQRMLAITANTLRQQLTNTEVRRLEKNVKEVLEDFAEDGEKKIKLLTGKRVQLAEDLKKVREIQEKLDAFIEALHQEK
UniProt Q86UY8: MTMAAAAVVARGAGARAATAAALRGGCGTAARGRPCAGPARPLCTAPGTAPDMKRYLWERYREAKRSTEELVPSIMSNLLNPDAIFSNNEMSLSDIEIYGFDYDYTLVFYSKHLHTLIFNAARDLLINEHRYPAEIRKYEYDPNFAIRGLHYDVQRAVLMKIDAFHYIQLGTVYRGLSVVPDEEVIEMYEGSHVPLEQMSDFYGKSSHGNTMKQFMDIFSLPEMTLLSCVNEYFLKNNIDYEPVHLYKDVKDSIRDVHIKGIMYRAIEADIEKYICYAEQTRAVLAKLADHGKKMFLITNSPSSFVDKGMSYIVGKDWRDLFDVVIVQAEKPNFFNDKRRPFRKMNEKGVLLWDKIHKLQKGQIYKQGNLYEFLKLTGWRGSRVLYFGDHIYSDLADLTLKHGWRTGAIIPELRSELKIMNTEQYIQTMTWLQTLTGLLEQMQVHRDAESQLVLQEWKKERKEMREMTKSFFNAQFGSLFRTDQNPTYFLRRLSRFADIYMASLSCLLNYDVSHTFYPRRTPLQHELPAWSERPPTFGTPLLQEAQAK

Compound: ClCC(=O)N[C@@H]1CCCc2ccccc12
Test: log2 mean competition ratio of IA-DTB cysteine labelling (DMSO/compound) (log2 ratio); higher = stronger cysteine engagement by compound
Settings: 50 µM; treatment time: 4 h; cell line lysate: HEK293T
Protocol: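 IA-DTB competitive cysteine chemoproteomics in HEK293T RIPA lysate. Lysates were treated with compound 29 or 30 at 50 or 200 µM for 4 h, then IA-DTB (500 µM, 1 h), trypsin-digested, NeutrAvidin-enriched and analysed by diaPASEF. Competition ratio = intensity DMSO / intensity compound (n=4 treated, n=64 DMSO); binding: mean log2 CR ≥ 1 and p ≤ 0.05 plus QC filters. Target is the cysteine site.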

| Target | log2 mean competition ratio |
| --- | --- |
| NR3C1 C367 (UniProt P04150) | -0.0789 |
| OSGEPL1 C390 (UniProt Q9H4B0) | 0.0812 |
| NSL1 C175 (UniProt Q96IY1) | 0.4 |
| OPHN1 C24 (UniProt O60890) | -0.0253 |
| NPTX1 C89 (UniProt Q15818) | -0.0163 |
| NUP160 C529 (UniProt Q12769) | -0.152 |
| NSUN3 C214 (UniProt Q9H649) | -0.238 |
| NUP214 C1003 | 0.014 |
| OSBP2 C319 (UniProt Q969R2) | -0.164 |
| NUP58 C252 (UniProt Q9BVL2) | -0.218 |
| NSDHL C132 | -0.112 |
| NR2C2 C204 (UniProt P49116) | -0.375 |
| NUMA1 C1136 (UniProt Q14980) | -0.0467 |
| OBI1 C555 (UniProt Q5W0B1) | 0.104 |
| NSD2 C207 (UniProt O96028) | -0.0823 |
| OGT C531 (UniProt O15294) | -0.256 |
| NSUN4 C258 (UniProt Q96CB9) | -0.173 |
| OSBPL10 C33 (UniProt Q9BXB5) | 0.16 |
| OPA1 C375 (UniProt O60313) | 0.0457 |
| NT5DC3 C276 (UniProt Q86UY8) | 0.0647 |

Same assay, conditions: 200 µM; treatment time: 4 h; cell line lysate: HEK293T

| Target | log2 mean competition ratio |
| --- | --- |
| NR3C1 C367 (UniProt P04150) | 0.427 |
| OSGEPL1 C390 (UniProt Q9H4B0) | 0.17 |
| NSL1 C175 (UniProt Q96IY1) | 0.164 |
| OPHN1 C24 (UniProt O60890) | -0.234 |
| NPTX1 C89 (UniProt Q15818) | -0.233 |
| NUP160 C529 (UniProt Q12769) | -0.519 |
| NSUN3 C214 (UniProt Q9H649) | 0.0388 |
| NUP214 C1003 | -0.115 |
| OSBP2 C319 (UniProt Q969R2) | 0.0852 |
| NUP58 C252 (UniProt Q9BVL2) | 0.377 |
| NSDHL C132 | -0.269 |
| NR2C2 C204 (UniProt P49116) | 0.0328 |
| NUMA1 C1136 (UniProt Q14980) | 0.0856 |
| OBI1 C555 (UniProt Q5W0B1) | -0.139 |
| NSD2 C207 (UniProt O96028) | -0.137 |
| OGT C531 (UniProt O15294) | -0.0976 |
| NSUN4 C258 (UniProt Q96CB9) | -0.0732 |
| OSBPL10 C33 (UniProt Q9BXB5) | 0.276 |
| OPA1 C375 (UniProt O60313) | -0.113 |
| NT5DC3 C276 (UniProt Q86UY8) | -0.235 |
